# Results are given in words; binding and its absence hold for the method and conditions named.
# Target: M. tuberculosis GlnH, predicted soluble domain (M. tuberculosis H37Rv) (UniProt P96257)
# Assay: SEC; […] (16/60), 20 mM Tris-acetate (pH 7.5)-20 mM NaCl; […]; both purified
substance,measurement,value
"M. tuberculosis GlnH, predicted soluble domain (from UniProt P96257 27-328) (domain or fragment)",binding,no binding

# From paper PMC6069109, “An Aspartate-Specific Solute-Binding Protein Regulates Protein Kinase G Activity To Control Glutamate Metabolism in Mycobacteria” (mBio, 2018)
